# Test results reported in the supplement of paper PMC10849652.
# Chains of the proteins cited; added tags and fusions are not shown. Lines headed by an entry give the natural chain unless they say otherwise; changes in a name come on top.
# UniProt P51790: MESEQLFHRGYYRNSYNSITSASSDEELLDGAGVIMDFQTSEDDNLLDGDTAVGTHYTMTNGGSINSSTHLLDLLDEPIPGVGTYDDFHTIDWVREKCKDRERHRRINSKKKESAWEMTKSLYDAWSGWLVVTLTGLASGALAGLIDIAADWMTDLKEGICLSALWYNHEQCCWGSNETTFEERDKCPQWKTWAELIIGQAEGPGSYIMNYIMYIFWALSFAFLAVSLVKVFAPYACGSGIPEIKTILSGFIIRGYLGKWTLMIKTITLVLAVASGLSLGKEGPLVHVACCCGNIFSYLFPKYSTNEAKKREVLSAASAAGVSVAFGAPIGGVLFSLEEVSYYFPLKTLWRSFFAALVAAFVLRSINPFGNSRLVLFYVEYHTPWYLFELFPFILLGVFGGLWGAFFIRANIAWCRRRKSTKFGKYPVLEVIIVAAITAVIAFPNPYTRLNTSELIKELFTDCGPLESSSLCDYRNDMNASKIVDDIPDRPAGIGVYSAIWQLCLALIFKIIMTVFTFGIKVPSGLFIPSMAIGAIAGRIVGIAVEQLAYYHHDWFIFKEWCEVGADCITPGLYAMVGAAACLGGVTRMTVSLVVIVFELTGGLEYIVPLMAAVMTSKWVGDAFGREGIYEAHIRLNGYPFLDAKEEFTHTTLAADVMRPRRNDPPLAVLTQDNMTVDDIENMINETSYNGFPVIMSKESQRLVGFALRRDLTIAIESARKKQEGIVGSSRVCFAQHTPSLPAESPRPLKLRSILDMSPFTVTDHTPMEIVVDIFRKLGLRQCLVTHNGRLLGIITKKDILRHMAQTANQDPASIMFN
# UniProt Q13286: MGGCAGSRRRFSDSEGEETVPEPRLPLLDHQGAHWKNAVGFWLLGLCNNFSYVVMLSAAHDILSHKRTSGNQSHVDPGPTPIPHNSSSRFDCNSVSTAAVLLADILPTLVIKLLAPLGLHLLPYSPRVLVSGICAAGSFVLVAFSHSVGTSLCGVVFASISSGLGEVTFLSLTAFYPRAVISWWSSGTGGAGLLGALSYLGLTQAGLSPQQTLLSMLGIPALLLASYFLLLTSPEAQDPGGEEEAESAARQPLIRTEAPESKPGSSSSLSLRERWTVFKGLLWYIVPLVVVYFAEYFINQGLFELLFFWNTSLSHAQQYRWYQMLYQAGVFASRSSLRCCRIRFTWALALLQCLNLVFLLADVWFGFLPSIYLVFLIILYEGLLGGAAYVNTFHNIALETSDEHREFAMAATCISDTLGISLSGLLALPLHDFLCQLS
# UniProt Q96MW5: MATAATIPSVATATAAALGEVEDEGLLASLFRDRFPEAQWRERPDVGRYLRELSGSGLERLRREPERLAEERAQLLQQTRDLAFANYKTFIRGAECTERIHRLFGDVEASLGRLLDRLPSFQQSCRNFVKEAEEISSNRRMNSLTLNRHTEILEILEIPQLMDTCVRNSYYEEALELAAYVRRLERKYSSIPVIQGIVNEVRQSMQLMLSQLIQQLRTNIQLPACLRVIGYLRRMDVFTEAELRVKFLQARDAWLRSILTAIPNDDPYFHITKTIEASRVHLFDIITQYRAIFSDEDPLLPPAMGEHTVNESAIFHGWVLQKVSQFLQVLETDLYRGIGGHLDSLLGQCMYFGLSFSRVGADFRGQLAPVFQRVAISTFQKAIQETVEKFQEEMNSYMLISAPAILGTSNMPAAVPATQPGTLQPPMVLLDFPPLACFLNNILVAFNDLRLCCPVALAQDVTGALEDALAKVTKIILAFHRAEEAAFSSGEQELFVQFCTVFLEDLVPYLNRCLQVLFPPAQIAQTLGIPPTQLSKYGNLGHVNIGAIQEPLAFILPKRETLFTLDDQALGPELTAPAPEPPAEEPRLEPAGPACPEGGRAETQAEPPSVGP
# UniProt Q96F85: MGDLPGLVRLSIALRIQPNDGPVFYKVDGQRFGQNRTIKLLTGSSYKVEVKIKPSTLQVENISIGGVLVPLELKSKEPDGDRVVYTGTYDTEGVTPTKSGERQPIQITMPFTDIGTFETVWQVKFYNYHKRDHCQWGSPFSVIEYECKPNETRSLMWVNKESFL
# UniProt P56749: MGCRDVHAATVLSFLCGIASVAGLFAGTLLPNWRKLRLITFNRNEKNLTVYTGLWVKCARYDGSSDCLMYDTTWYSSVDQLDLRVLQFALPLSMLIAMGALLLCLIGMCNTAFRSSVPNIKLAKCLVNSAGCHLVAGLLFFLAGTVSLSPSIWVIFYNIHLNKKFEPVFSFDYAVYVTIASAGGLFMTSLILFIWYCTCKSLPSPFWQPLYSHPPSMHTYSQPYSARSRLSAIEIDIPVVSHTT
# UniProt P33552, whole entry, looked up: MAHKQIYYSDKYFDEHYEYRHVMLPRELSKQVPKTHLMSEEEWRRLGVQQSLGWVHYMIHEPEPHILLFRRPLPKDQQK
# UniProt Q9NWW5: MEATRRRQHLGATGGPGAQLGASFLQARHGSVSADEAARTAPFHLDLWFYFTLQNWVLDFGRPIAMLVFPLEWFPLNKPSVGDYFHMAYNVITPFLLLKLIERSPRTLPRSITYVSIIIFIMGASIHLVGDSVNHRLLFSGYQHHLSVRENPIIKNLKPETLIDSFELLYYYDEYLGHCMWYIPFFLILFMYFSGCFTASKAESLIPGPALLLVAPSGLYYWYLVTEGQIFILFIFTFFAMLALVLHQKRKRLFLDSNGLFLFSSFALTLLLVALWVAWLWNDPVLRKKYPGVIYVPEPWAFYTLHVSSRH
# UniProt P83436: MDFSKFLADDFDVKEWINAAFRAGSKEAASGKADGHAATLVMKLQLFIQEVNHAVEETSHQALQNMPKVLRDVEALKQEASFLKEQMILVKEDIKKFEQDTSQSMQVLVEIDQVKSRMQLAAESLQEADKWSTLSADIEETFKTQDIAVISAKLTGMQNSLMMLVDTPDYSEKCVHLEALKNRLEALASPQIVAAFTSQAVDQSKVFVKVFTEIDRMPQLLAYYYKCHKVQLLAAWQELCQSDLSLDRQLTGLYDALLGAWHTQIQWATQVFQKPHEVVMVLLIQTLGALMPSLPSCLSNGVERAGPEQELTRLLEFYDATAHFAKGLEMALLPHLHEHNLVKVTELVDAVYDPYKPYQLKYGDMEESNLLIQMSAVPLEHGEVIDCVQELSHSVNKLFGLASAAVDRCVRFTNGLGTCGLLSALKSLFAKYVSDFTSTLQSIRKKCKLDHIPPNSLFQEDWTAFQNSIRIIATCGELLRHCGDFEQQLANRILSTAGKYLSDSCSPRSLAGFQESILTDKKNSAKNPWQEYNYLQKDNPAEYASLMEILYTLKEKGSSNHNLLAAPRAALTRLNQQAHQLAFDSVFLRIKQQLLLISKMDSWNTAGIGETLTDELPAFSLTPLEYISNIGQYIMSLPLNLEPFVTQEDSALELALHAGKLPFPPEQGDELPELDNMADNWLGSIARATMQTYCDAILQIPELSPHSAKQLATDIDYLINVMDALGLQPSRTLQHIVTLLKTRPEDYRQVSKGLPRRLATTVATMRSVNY
# UniProt P51795: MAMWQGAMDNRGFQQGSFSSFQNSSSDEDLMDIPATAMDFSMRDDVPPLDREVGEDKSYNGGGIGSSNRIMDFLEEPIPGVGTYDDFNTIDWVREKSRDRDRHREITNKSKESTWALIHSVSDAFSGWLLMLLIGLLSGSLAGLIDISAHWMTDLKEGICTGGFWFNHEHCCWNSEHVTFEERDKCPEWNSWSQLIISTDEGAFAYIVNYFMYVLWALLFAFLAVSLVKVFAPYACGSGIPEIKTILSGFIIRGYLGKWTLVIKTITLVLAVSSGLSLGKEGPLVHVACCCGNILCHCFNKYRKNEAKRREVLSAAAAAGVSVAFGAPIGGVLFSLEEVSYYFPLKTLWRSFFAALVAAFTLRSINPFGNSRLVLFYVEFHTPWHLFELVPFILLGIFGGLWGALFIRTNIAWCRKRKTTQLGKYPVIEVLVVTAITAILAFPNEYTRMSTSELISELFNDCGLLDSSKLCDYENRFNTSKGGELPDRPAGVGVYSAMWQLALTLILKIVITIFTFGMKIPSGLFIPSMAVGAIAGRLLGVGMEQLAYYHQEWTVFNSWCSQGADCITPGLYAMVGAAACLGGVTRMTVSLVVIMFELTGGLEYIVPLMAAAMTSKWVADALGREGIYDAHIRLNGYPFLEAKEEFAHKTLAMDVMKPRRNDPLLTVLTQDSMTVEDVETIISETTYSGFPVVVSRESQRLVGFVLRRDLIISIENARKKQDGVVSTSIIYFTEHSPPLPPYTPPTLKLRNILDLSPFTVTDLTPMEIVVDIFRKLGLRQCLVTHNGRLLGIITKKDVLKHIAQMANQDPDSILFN
# UniProt G5E9Z2: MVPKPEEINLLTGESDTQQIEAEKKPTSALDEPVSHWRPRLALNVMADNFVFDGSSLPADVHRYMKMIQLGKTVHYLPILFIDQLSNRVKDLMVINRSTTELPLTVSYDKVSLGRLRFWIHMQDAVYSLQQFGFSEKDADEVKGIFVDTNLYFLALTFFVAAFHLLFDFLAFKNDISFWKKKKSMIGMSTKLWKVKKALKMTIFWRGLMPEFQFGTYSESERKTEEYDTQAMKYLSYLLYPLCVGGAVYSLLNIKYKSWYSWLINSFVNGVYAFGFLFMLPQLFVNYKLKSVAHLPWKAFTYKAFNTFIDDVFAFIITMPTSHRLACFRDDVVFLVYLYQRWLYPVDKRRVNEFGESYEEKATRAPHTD
# UniProt Q8N0X4: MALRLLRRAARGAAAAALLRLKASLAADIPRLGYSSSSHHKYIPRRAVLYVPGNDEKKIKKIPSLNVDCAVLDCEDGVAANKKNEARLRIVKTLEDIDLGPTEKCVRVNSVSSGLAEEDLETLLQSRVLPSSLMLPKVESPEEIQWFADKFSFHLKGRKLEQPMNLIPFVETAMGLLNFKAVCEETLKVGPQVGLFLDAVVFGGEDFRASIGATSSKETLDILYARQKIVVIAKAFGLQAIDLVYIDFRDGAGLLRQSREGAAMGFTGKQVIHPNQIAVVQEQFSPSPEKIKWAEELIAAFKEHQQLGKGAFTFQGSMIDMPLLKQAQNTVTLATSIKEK
# UniProt Q8N9A8: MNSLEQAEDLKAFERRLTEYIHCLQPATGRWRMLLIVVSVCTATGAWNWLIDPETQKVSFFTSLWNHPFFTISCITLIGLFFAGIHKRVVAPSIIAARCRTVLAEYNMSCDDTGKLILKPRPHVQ
# UniProt P56277: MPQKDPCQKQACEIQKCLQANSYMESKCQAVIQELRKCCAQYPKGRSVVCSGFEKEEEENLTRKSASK
# UniProt Q9Y240: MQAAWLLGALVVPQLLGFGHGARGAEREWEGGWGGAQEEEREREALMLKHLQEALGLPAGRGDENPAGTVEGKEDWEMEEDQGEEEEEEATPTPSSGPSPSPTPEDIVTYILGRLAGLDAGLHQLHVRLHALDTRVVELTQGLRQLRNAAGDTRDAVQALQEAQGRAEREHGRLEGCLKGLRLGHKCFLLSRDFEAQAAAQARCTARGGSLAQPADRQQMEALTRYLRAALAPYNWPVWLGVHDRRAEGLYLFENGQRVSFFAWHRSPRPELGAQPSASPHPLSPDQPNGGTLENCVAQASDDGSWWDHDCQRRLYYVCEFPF
# UniProt O43529: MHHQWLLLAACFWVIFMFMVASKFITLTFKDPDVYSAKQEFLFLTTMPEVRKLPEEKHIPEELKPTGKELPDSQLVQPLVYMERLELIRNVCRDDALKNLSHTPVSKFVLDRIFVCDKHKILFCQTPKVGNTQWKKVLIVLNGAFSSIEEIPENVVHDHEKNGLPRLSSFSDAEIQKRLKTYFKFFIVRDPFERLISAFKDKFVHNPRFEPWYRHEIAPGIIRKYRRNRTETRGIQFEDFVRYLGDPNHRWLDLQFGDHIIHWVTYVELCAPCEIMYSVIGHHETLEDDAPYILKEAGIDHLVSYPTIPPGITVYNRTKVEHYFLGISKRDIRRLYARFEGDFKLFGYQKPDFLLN
# UniProt Q86WW8: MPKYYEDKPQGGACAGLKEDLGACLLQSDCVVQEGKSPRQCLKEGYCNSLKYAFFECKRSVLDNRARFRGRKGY
# UniProt P51801: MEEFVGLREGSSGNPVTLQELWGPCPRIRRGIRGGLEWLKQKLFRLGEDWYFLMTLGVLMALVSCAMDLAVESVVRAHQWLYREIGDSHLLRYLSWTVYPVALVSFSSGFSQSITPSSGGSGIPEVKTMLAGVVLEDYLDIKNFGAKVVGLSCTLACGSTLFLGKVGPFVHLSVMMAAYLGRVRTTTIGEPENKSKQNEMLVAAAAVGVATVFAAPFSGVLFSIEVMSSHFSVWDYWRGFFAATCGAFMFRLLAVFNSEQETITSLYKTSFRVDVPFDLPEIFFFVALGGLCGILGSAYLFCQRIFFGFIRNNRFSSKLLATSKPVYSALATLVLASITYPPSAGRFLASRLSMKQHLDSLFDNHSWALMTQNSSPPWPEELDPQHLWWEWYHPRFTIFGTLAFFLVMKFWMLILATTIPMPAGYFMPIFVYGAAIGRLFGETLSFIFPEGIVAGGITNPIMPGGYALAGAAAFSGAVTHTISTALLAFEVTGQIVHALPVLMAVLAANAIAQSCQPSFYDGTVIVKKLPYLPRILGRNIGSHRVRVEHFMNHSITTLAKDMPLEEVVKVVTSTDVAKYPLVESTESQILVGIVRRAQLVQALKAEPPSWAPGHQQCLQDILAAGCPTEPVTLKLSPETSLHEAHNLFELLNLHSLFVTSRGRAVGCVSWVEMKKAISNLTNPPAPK
# The list shows a part of the results.
# Columns and labels:
# Assay in all cases: log2 fold change, soluble protein after heating vs DMSO (PISA); higher = thermal stabilisation; K562 cells, 10 uM, 30 min; active = over 0.2 and 3.5 SD of the protein, either way, in both replicates (recomputed)
# saracatinib = compound: CN1CCN(CCOc2cc(OC3CCOCC3)c3c(Nc4c(Cl)ccc5c4OCO5)ncnc3c2)CC1 [saracatinib]
# Summary of the method: (§1)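 For each measurement, 10 μM compound was applied for 30 min to K562 cells at 2×10^6 cells/mL. Aliquots were heated for 3 min across 48°C-58°C, pooled, and extracted in PBS with 0.5% NP-40 at 4°C; the supernatant after 21,000xg for 90 min was soluble protein. This was quantified by TMTpro 16plex LC-MS/MS with channel sums equalised, and thermal stability was reported relative to control samples from duplicates, on a log2 fold-change scale.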
# sotrastaurin = compound: CN1CCN(c2nc(C3=C(c4c[nH]c5ccccc45)C(=O)NC3=O)c3ccccc3n2)CC1 [sotrastaurin]
# Summary of the method: as §1
# Tubastatin A = compound: CN1CCc2c(c3ccccc3n2Cc2ccc(C(=O)NO)cc2)C1 [Tubastatin A]
# Summary of the method: as §1
# [1] = compound: CNC(=O)C1=CC=CC=C1NC2=NC(=NC=C2Cl)NC3=C(C=C(C=C3)N4CCOCC4)OC
# Summary of the method: as §1
# defactinib = compound: CNC(=O)c1ccc(Nc2ncc(C(F)(F)F)c(NCc3nccnc3N(C)S(C)(=O)=O)n2)cc1 [defactinib]
# Summary of the method: as §1
# rucaparib = compound: CNCc1ccc(-c2[nH]c3cc(F)cc4c3c2CCNC4=O)cc1 [rucaparib]
# Summary of the method: as §1
# [2] = compound: CNc1nc(-c2ccc3c(N)n[nH]c3c2)cc(N2C[C@@H](C(=O)NC3CCCCC3)CC[C@H]2C)n1
# Summary of the method: as §1
# encorafenib = compound: COC(=O)N[C@@H](C)CNc1nccc(-c2cn(C(C)C)nc2-c2cc(Cl)cc(NS(C)(=O)=O)c2F)n1 [encorafenib]
# Summary of the method: as §1
# [3] = compound: COC(=O)[C@H](CCSC)NC(=O)C1=C(C=C(C=C1)NC[C@H](CS)N)C2=CC=CC=C2
# Summary of the method: as §1
# alvocidib = compound: CN1CC[C@H](c2c(O)cc(O)c3c(=O)cc(-c4ccccc4Cl)oc23)[C@H](O)C1 [alvocidib]
# Summary of the method: as §1
Target,log2 fold change (saracatinib),log2 fold change (sotrastaurin),log2 fold change (Tubastatin A),log2 fold change [1],log2 fold change (defactinib),log2 fold change (rucaparib),log2 fold change [2],log2 fold change (encorafenib),log2 fold change [3],log2 fold change (alvocidib)
CKS1B (UniProt P61024),inactive: 0.06,inactive: 0.059,inactive: -0.045,inactive: -0.01,inactive: -0.054,inactive: -0.047,inactive: -0.057,inactive: 0.01,inactive: -0.1,
CLCN3 (UniProt P51790),inactive: 0,inactive: 0.021,inactive: -0.14,inactive: 0.019,inactive: 0.004,inactive: -0.055,inactive: -0.057,inactive: 0.021,inactive: -0.06,
CIZ1 (UniProt Q9ULV3),inactive: 0.046,inactive: -0.075,inactive: 0.102,inactive: -0.11,inactive: -0.117,inactive: 0.027,inactive: -0.109,inactive: -0.038,inactive: -0.001,
CNOT2 (UniProt Q9NZN8),inactive: -0.044,inactive: 0.007,inactive: -0.005,inactive: -0.006,inactive: -0.024,inactive: 0.052,inactive: 0,inactive: 0.012,inactive: -0.021,
COL14A1 (UniProt Q05707),inactive: 0.017,inactive: 0.127,inactive: 0.013,,inactive: -0.068,inactive: 0.061,inactive: -0.174,inactive: -0.107,inactive: -0.016,
CLASP2 isoform 3 (UniProt O75122),inactive: -0.073,inactive: -0.232,inactive: 0.016,inactive: -0.041,inactive: -0.1,inactive: 0.015,inactive: 0.035,inactive: 0.084,inactive: -0.043,
CNDP2 (UniProt Q96KP4),inactive: -0.016,inactive: -0.003,active: -0.226,inactive: -0.014,inactive: -0.006,inactive: -0.041,inactive: 0.028,inactive: 0.001,inactive: 0.124,
CNN2 (UniProt Q99439),inactive: 0.004,inactive: -0.161,inactive: 0,inactive: -0.003,inactive: -0.087,inactive: -0.008,inactive: -0.077,inactive: 0.023,inactive: 0,
CLN3 (UniProt Q13286),inactive: 0.046,,inactive: 0.065,inactive: 0.004,inactive: -0.039,inactive: 0.082,inactive: -0.097,inactive: -0.053,inactive: 0.149,
CLP1 (UniProt Q92989),,inactive: -0.06,inactive: 0.1,inactive: -0.026,,inactive: -0.077,,inactive: 0.152,,inactive: -0.116
COG8 (UniProt Q96MW5),,,,,,inactive: 0.34,,inactive: -0.14,,inactive: 0.172
CNRIP1 (UniProt Q96F85),,,,inactive: 0.053,,,,,,
CLDN12 (UniProt P56749),,inactive: -0.077,,,,,,,,
CMTM4 (UniProt Q8IZR5),,inactive: -0.046,inactive: -0.141,,inactive: 0.062,inactive: 0.015,,inactive: -0.034,inactive: 0.089,
CKS2 (UniProt P33552),inactive: -0.044,,inactive: 0.031,,,inactive: 0.025,inactive: -0.101,inactive: 0.078,,
CHST11 (UniProt Q9NPF2),,inactive: -0.02,inactive: 0.08,inactive: 0.079,inactive: -0.003,inactive: 0.083,,inactive: 0.177,inactive: -0.048,
CLN6 (UniProt Q9NWW5),,inactive: 0,inactive: -0.04,,inactive: -0.046,inactive: 0,,inactive: -0.084,inactive: 0.177,inactive: 0.145
CLINT1 (UniProt Q14677),inactive: -0.003,,inactive: -0.029,,inactive: -0.002,inactive: 0.128,inactive: -0.062,inactive: -0.045,inactive: 0.036,
COG5 isoform 2 (UniProt Q9UP83),,,,inactive: -0.001,inactive: 0.01,,,,inactive: -0.034,
COG7 (UniProt P83436),inactive: -0.041,,,inactive: 0.062,inactive: 0.009,,inactive: 0.066,,inactive: -0.056,inactive: 0.027
CNOT4 isoform 9 (UniProt O95628),inactive: 0.077,,inactive: -0.027,inactive: 0.187,inactive: -0.129,inactive: -0.057,inactive: -0.021,inactive: -0.05,inactive: 0.038,

Target,log2 fold change (saracatinib),log2 fold change (sotrastaurin),log2 fold change (Tubastatin A),log2 fold change [1],log2 fold change (defactinib),log2 fold change (rucaparib),log2 fold change [2],log2 fold change (encorafenib),log2 fold change [3],log2 fold change (alvocidib)
CLIP1 isoform 2 (UniProt P30622),,inactive: 0.048,,inactive: -0.115,inactive: 0.075,inactive: 0.017,,inactive: -0.025,inactive: -0.072,inactive: -0.055
CLCN5 isoform 2 (UniProt P51795),inactive: -0.001,,inactive: -0.006,inactive: 0.009,inactive: -0.033,inactive: 0.097,inactive: -0.116,inactive: 0.075,inactive: -0.025,
CLPTM1L (UniProt G5E9Z2),,inactive: -0.288,inactive: -0.109,,inactive: 0.002,,,,inactive: -0.029,
CHURC1-FNTB (UniProt B4DL54),,inactive: 0.024,inactive: 0.059,inactive: -0.032,inactive: -0.144,inactive: 0.002,,inactive: -0.028,inactive: -0.174,
CNBP isoform 4 (UniProt P62633),,,,,,inactive: 0.049,,inactive: -0.037,,
CLYBL (UniProt Q8N0X4),,,,inactive: -0.098,,,,,,
COL12A1 (UniProt Q99715),,inactive: -0.063,inactive: -0.109,,,,,,,
CLSTN3 isoform 2 (UniProt Q9BQT9),,,,,inactive: 0.022,,,,inactive: 0.207,
CNEP1R1 isoform 2 (UniProt Q8N9A8),,,inactive: 0.051,inactive: 0.003,inactive: -0.02,,,,inactive: -0.014,inactive: 0.288
CLASP2 (UniProt O75122),,,,inactive: 0,,inactive: 0,,inactive: 0.098,,
CLASRP (UniProt Q8N2M8),,inactive: -0.046,,inactive: -0.071,,inactive: -0.04,,inactive: -0.189,,inactive: -0.018
CMC4 (UniProt P56277),inactive: -0.216,,,inactive: -0.022,,,inactive: 0.001,,,inactive: -0.076
CNN1 (UniProt P51911),,inactive: 0.15,inactive: 0.126,,inactive: -0.028,inactive: 0.102,,inactive: -0.046,inactive: 0.043,
CLDN6 (UniProt P56747),inactive: -0.042,,,inactive: -0.119,,,inactive: 0.275,,,
CMIP (UniProt Q8IY22),,inactive: -0.566,,,,inactive: 0.044,,inactive: 0.133,,
CLEC11A (UniProt Q9Y240),inactive: -0.109,,inactive: 0.069,inactive: -0.017,,,inactive: 0.092,,,
CHST10 (UniProt O43529),,inactive: -0.01,inactive: -0.037,inactive: 0.035,,,,,,
COA5 (UniProt Q86WW8),inactive: -0.002,,,inactive: -0.071,inactive: 0.062,,inactive: -0.064,,inactive: 0.05,inactive: 0.15
CLCNKB (UniProt P51801),inactive: 0.267,,,inactive: 0.105,inactive: -0.04,,inactive: 0.026,,inactive: 0.024,inactive: -0.05
CMYA5 (UniProt Q8N3K9),,inactive: 0.276,inactive: -0.059,,,,,,,inactive: 0.112

# Rewritten as tab-separated lines: entries from further up.
Target	log2 fold change (saracatinib)	log2 fold change (sotrastaurin)	log2 fold change (Tubastatin A)	log2 fold change [1]	log2 fold change (defactinib)	log2 fold change (rucaparib)	log2 fold change [2]	log2 fold change (encorafenib)	log2 fold change [3]	log2 fold change (alvocidib)
CLIP1 isoform 2 (UniProt P30622)		inactive: 0.048		inactive: -0.115	inactive: 0.075	inactive: 0.017		inactive: -0.025	inactive: -0.072	inactive: -0.055
CLCN5 isoform 2 (UniProt P51795)	inactive: -0.001		inactive: -0.006	inactive: 0.009	inactive: -0.033	inactive: 0.097	inactive: -0.116	inactive: 0.075	inactive: -0.025	
CLPTM1L (UniProt G5E9Z2)		inactive: -0.288	inactive: -0.109		inactive: 0.002				inactive: -0.029	
CNBP isoform 4 (UniProt P62633)						inactive: 0.049		inactive: -0.037		
COL12A1 (UniProt Q99715)		inactive: -0.063	inactive: -0.109							
CNEP1R1 isoform 2 (UniProt Q8N9A8)			inactive: 0.051	inactive: 0.003	inactive: -0.02				inactive: -0.014	inactive: 0.288
CNN1 (UniProt P51911)		inactive: 0.15	inactive: 0.126		inactive: -0.028	inactive: 0.102		inactive: -0.046	inactive: 0.043	
CLCNKB (UniProt P51801)	inactive: 0.267			inactive: 0.105	inactive: -0.04		inactive: 0.026		inactive: 0.024	inactive: -0.05
CMYA5 (UniProt Q8N3K9)		inactive: 0.276	inactive: -0.059							inactive: 0.112
